Reference: PubChem BioAssay AID1259425 (University of Nebraska Medical Center, 2018)
Here is an unselected part of about 14,000 reagents. Not all columns of the deposit are shown. Not given: the time to read-out.

Test: 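Find knockdowns that reproduce the gene expression pattern seen when KSR1 is lost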 (primary screen)
Cell system: HCT116 human colon cancer cells
Knock-down reagent: siRNA pool against human genes, 50 nM siRNA
Measured: 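mRNA of six signature genes measured together by branched-DNA assay after 50 nM siRNA pool, blank removed, divided by geometric mean of two housekeeping genes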
Reading the numbers: BNIP3L mRNA: higher = more BNIP3L transcript after knockdown

The opening 4 entries as a preview:
| gene | BNIP3L mRNA, set 1 |
| --- | --- |
| TRIM31 | 0.273 |
| KRT8 | 0.0772 |
| AGBL2 | 0.121 |
| SMC1B | 0.163 |

Results, repeating the preview:
| gene | BNIP3L mRNA, set 1 |
| --- | --- |
| TRIM31 | 0.273 |
| KRT8 | 0.0772 |
| AGBL2 | 0.121 |
| SMC1B | 0.163 |
| GRIP2 | 0.0825 |
| SRP54 | 0.126 |
| SRPK1 | 0.246 |
| RAB38 | 0.158 |
| KLHL42 | 0.0788 |
| SIGLEC9 | 0.0781 |
| INTS3 | 0.199 |
| S100A10 | 0.061 |
| APOB | 0.0321 |
| PITX1 | 0.112 |
| FFAR2 | 0.361 |
| EDIL3 | 0.0933 |
| GPI | 0.155 |
| NOC2L | 0.114 |
| FBXL6 | 0.0957 |
| GM2A | 0.0764 |
| FRMD4B | 0.113 |
| NSUN2 | 0.0473 |
| APAF1 | 0.119 |
| INTS14 | 0.121 |
| DYNLT3 | 0.149 |
| IL4 | 0.0485 |
| HADH | 0.0953 |
| TAF4B | 0.103 |
| H4C11 | 0.101 |
| A2M | 0.09 |
| PLXDC2 | 0.139 |
| RAB11FIP2 | 0.142 |
| VN1R2 | 0.141 |
| TM9SF4 | 0.13 |
